{
  "source": "patent US20100040621A1",
  "about": "“Novel polpeptide and use thereof” (TAKEDA PHARMACEUTICAL COMPANY LIMITED, priority 2005, published 2010)",
  "key": {"[1]": {"assay": "RIA of immunoreactive NERP in human plasma", "conditions": "endogenous"}, "[2]": {"assay": "RIA quantification of tissue levels of NERP in rat tissues", "conditions": "endogenous immunoreactive peptide, male Wistar rat"}},
  "data": [
    {"substance": "NERP-1: VGF-derived peptide; human, rat and mouse sequences are SEQ ID NO: 4, 5 and 6; rat form an amidated 25-amino acid peptide (RPESALLGGSEAGERLLQQGLAQVEA; Neuroendocrine regulatory peptide-1; UniProt O15240 281-306, looked up) [VGF-derived peptide; rat form an amidated 25-amino acid peptide]", "values": [
      {"measurement": "plasma levels of immunoreactive NERP in human", "setting": "[1]", "result": "9.8 ± 1.1", "unit": "fmol/mL"},
      {"measurement": "Tissue level, Brain", "setting": "[2]", "result": "6.60 ± 0.32", "unit": "pmol/g wet weight"},
      {"measurement": "Tissue level, Colon Ascending", "setting": "[2]", "result": "1.98 ± 0.35", "unit": "pmol/g wet weight"},
      {"measurement": "Tissue level, Colon Descending", "setting": "[2]", "result": "7.14 ± 0.46", "unit": "pmol/g wet weight"},
      {"measurement": "Tissue level, Duodenum", "setting": "[2]", "result": "0.97 ± 0.04", "unit": "pmol/g wet weight"},
      {"measurement": "Tissue level, Heart Atrium", "setting": "[2]", "result": "0.69 ± 0.18", "unit": "pmol/g wet weight"},
      {"measurement": "Tissue level, Heart Ventricle", "setting": "[2]", "result": "0.11 ± 0.01", "unit": "pmol/g wet weight"},
      {"measurement": "Tissue level, Hypothalamus", "setting": "[2]", "result": "15.59 ± 1.21", "unit": "pmol/g wet weight"},
      {"measurement": "Tissue level, Ileum", "setting": "[2]", "result": "1.63 ± 0.26", "unit": "pmol/g wet weight"},
      {"measurement": "Tissue level, Jejunum", "setting": "[2]", "result": "1.11 ± 0.12", "unit": "pmol/g wet weight"},
      {"measurement": "Tissue level, Liver", "setting": "[2]", "result": "0.15 ± 0.05", "unit": "pmol/g wet weight"},
      {"measurement": "Tissue level, Lung", "setting": "[2]", "result": "0.22 ± 0.02", "unit": "pmol/g wet weight"},
      {"measurement": "Tissue level, Pancreas", "setting": "[2]", "result": "0.15 ± 0.02", "unit": "pmol/g wet weight"},
      {"measurement": "Tissue level, Pituitary Anterior", "setting": "[2]", "result": "5.99 ± 0.40", "unit": "pmol/g wet weight"},
      {"measurement": "Tissue level, Pituitary Posterior", "setting": "[2]", "result": "34.73 ± 2.82", "unit": "pmol/g wet weight"},
      {"measurement": "Tissue level, Spleen", "setting": "[2]", "result": "0.28 ± 0.04", "unit": "pmol/g wet weight"},
      {"measurement": "Tissue level, Stomach Antrum", "setting": "[2]", "result": "0.48 ± 0.12", "unit": "pmol/g wet weight"},
      {"measurement": "Tissue level, Stomach Fundus", "setting": "[2]", "result": "0.79 ± 0.02", "unit": "pmol/g wet weight"}
    ]},
    {"substance": "NERP-2: VGF-derived peptide; human, rat and mouse sequences are SEQ ID NO: 7, 8 and 9; rat form an amidated 38-amino acid peptide (QAEATRQAAAQEERLADLASDLLLQYLLQGGARQRGLG; Neuroendocrine regulatory peptide-2; UniProt O15240 310-347, looked up) [VGF-derived peptide; rat form an amidated 38-amino acid peptide]", "values": [
      {"measurement": "plasma levels of immunoreactive NERP in human", "setting": "[1]", "result": "10.8 ± 1.0", "unit": "fmol/mL"},
      {"measurement": "Tissue level, Brain", "setting": "[2]", "result": "4.14 ± 0.25", "unit": "pmol/g wet weight"},
      {"measurement": "Tissue level, Colon Ascending", "setting": "[2]", "result": "0.23 ± 0.03", "unit": "pmol/g wet weight"},
      {"measurement": "Tissue level, Colon Descending", "setting": "[2]", "result": "3.94 ± 0.30", "unit": "pmol/g wet weight"},
      {"measurement": "Tissue level, Duodenum", "setting": "[2]", "result": "0.38 ± 0.13", "unit": "pmol/g wet weight"},
      {"measurement": "Tissue level, Heart Atrium", "setting": "[2]", "result": "0.21 ± 0.04", "unit": "pmol/g wet weight"},
      {"measurement": "Tissue level, Heart Ventricle", "setting": "[2]", "result": "0.03 ± 0.01", "unit": "pmol/g wet weight"},
      {"measurement": "Tissue level, Hypothalamus", "setting": "[2]", "result": "12.87 ± 1.50", "unit": "pmol/g wet weight"},
      {"measurement": "Tissue level, Ileum", "setting": "[2]", "result": "0.18 ± 0.01", "unit": "pmol/g wet weight"},
      {"measurement": "Tissue level, Jejunum", "setting": "[2]", "result": "0.26 ± 0.02", "unit": "pmol/g wet weight"},
      {"measurement": "Tissue level, Liver", "setting": "[2]", "result": "0.05 ± 0.01", "unit": "pmol/g wet weight"},
      {"measurement": "Tissue level, Lung", "setting": "[2]", "result": "0.07 ± 0.01", "unit": "pmol/g wet weight"},
      {"measurement": "Tissue level, Pancreas", "setting": "[2]", "result": "0.05 ± 0.01", "unit": "pmol/g wet weight"},
      {"measurement": "Tissue level, Pituitary Anterior", "setting": "[2]", "result": "3.11 ± 0.36", "unit": "pmol/g wet weight"},
      {"measurement": "Tissue level, Pituitary Posterior", "setting": "[2]", "result": "14.45 ± 1.91", "unit": "pmol/g wet weight"},
      {"measurement": "Tissue level, Spleen", "setting": "[2]", "result": "0.06 ± 0.01", "unit": "pmol/g wet weight"},
      {"measurement": "Tissue level, Stomach Antrum", "setting": "[2]", "result": "0.26 ± 0.05", "unit": "pmol/g wet weight"},
      {"measurement": "Tissue level, Stomach Fundus", "setting": "[2]", "result": "0.30 ± 0.03", "unit": "pmol/g wet weight"}
    ]}
  ]
}
